Results from the supplement of paper PMC4604168 (melanoma cell lines).
The list shows a part of the results. Many values rest on one well or one pass, so single values are uncertain.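 The apoptosis fraction was the count of cleaved-PARP antibody-stained nuclei relative to all DNA-stained nuclei, imaged in 1,536-well plates. Screening doses were set so most cells survived, and baseline and induced cleaved-PARP levels vary greatly across cell lines.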

What was measured:
Assay in all cases: cleaved PARP positive nuclei fraction relative to DMSO control; melanoma cells; higher = more apoptosis
Settings in all cases: library dose: low library concentration; 72 h
MZ2-MEL = tested on: MZ2-MEL
MeWo = tested on: MeWo
RPMI7951 = tested on: RPMI7951
RVH-421 = tested on: RVH-421
SkMel28 = tested on: SkMel28
SkMel2 = tested on: SkMel2
SkMel30 = tested on: SkMel30
UACC62 = tested on: UACC62

SMILES | cleaved PARP positive nuclei fraction (MZ2-MEL) | cleaved PARP positive nuclei fraction (MeWo) | cleaved PARP positive nuclei fraction (RPMI7951) | cleaved PARP positive nuclei fraction (RVH-421) | cleaved PARP positive nuclei fraction (SkMel28) | cleaved PARP positive nuclei fraction (SkMel2) | cleaved PARP positive nuclei fraction (SkMel30) | cleaved PARP positive nuclei fraction (UACC62)
CC1(C)CCC(c2ccc(Cl)cc2)=C(CN2CCN(c3ccc(C(=O)NS(=O)(=O)c4ccc(N[C@H](CCN5CCOCC5)CSc5ccccc5)c(S(=O)(=O)C(F)(F)F)c4)cc3)CC2)C1 + CC(C)C[C@H](NC(=O)[C@H](Cc1ccccc1)NC(=O)c1cnccn1)B(O)O [Bortezomib] (first compound 0.4 µM, partner dose 0.001 µM) | 133% | 1400% | 387% | 180% | 43.8% | 113% | 334% | 130%
CCCCCCCCc1ccc(CCC(N)(CO)CO)cc1 [fingolimod] + O=C(O)c1ccc2c(c1)nc(Nc1cccc(Cl)c1)c1ccncc12 [CX4945] (first compound 2 µM, partner dose 0.4 µM) | 71% | 49.6% | 67.9% | 105% | 64.7% | 54% | 92.2% | 248%
C[C@@H](N)c1ccc(C(=O)Nc2ccnc3[nH]ccc23)cc1 + Cn1c(=O)n(-c2ccc(C(C)(C)C#N)cc2)c2c3cc(-c4cnc5ccccc5c4)ccc3ncc21 [NVP-BEZ235] (first compound 0.4 µM, partner dose 0.004 µM) | 66.7% | 198% | 73.4% | 62.2% | 258% | 171% | 53.8% | 119%
C[C@@H](N)c1ccc(C(=O)Nc2ccnc3[nH]ccc23)cc1 + CS(=O)(=O)CCNCc1ccc(-c2ccc3ncnc(Nc4ccc(OCc5cccc(F)c5)c(Cl)c4)c3c2)o1 [lapatinib] (first compound 0.4 µM, partner dose 0.8 µM) | 172% | 330% | 40.8% | 184% | 105% | 119% | 86.3% | 254%
C[C@]1(O)C[C@@H](c2nc(-c3ccc4ccc(-c5ccccc5)nc4c3)c3c(N)nccn32)C1 + Nc1cccc2c1CN(C1CCC(=O)NC1=O)C2=O [lenalidomide] (first compound 0.4 µM, partner dose 1 µM) | 196% | 120% | 132% | 174% | 329% | 118% | 218% | 210%
CN(c1ncccc1CNc1nc(Nc2ccc3c(c2)CC(=O)N3)ncc1C(F)(F)F)S(C)(=O)=O + CC(C)C[C@H](NC(=O)[C@H](Cc1ccccc1)NC(=O)c1cnccn1)B(O)O [Bortezomib] (first compound 0.08 µM, partner dose 0.001 µM) | 126% | 49.8% | 64% | 101% | 185% | 92.7% | 36.7% | 104%
C[C@]1(O)C[C@@H](c2nc(-c3ccc4ccc(-c5ccccc5)nc4c3)c3c(N)nccn32)C1 + CNC(=O)c1cc(Oc2ccc(NC(=O)Nc3ccc(Cl)c(C(F)(F)F)c3)cc2)ccn1 [sorafenib] (first compound 0.4 µM, partner dose 0.4 µM) | 110% | 55.5% | 110% | 124% | 36.6% | 109% | 43% | 363%
Cn1sc(=O)n(Cc2ccccc2)c1=O + CC(=O)c1c(C)c2cnc(Nc3ccc(N4CCNCC4)cn3)nc2n(C2CCCC2)c1=O [palbociclib] (first compound 0.4 µM, partner dose 0.04 µM) | 109% | 33.3% | 113% | 54.9% | 67.8% | 75.7% | 113% | 138%
CCN(CC)CCNC(=O)c1c(C)[nH]c(/C=C2\C(=O)Nc3ccc(F)cc32)c1C [sunitinib] + CC(=O)c1c(C)c2cnc(Nc3ccc(N4CCNCC4)cn3)nc2n(C2CCCC2)c1=O [palbociclib] (first compound 0.4 µM, partner dose 0.04 µM) | 53.8% | 109% | 85.6% | 129% | 49.4% | 78.5% | 49.1% | 361%
Cn1sc(=O)n(Cc2ccccc2)c1=O + CS(=O)(=O)c1ccc(C(=O)Nc2ccc(Cl)c(-c3ccccn3)c2)c(Cl)c1 [vismodegib] (first compound 0.4 µM, partner dose 1 µM) | 67.5% | 75.2% | 151% | 47.9% | 75.1% | 68.1% | 72.4% | 96%
NC1(c2ccc(-c3nc4ccn5c(=O)[nH]nc5c4cc3-c3ccccc3)cc2)CCC1 + OCc1c[nH]c2ccccc12 [Indole-3-carbinol] (first compound 0.4 µM, partner dose 0.8 µM) | 69.7% | 93.9% | 52.6% | 134% | 61.5% | 81.5% | 72.4% | 87.7%
Cn1cnc2c(F)c(Nc3ccc(Br)cc3Cl)c(C(=O)NOCCO)cc21 [selumetinib] + CCCS(=O)(=O)Nc1ccc(F)c(C(=O)c2c[nH]c3ncc(Cl)cc23)c1F [PLX4720] (first compound 0.015 µM, partner dose 0.08 µM) | 145% | 18.9% | 28.8% | 118% | 53.4% | 152% | 38.2% | 158%
COc1ccc(C2=N[C@@H](c3ccc(Cl)cc3)[C@@H](c3ccc(Cl)cc3)N2C(=O)N2CCNC(=O)C2)c(OC(C)C)c1 [Nutlin-3] + Nc1nc(F)nc2c1ncn2[C@@H]1O[C@H](CO)[C@@H](O)[C@@H]1O [fludarabine] (first compound 0.1 µM, partner dose 0.2 µM) | 65% | 303% | 72% | 55.9% | 92.2% | 370% | 820% | 345%
COc1ccc(C2=N[C@@H](c3ccc(Cl)cc3)[C@@H](c3ccc(Cl)cc3)N2C(=O)N2CCNC(=O)C2)c(OC(C)C)c1 [Nutlin-3] + CCCCCCCCc1ccc(CCC(N)(CO)CO)cc1 [fingolimod] (first compound 0.1 µM, partner dose 2 µM) | 220% | 96.3% | 101% | 54.4% | 93.8% | 123% | 124% | 135%
COc1ccc(C2=N[C@@H](c3ccc(Cl)cc3)[C@@H](c3ccc(Cl)cc3)N2C(=O)N2CCNC(=O)C2)c(OC(C)C)c1 [Nutlin-3] + Nc1ccn([C@@H]2O[C@H](CO)[C@@H](O)C2(F)F)c(=O)n1 [gemcitabine] (first compound 0.1 µM, partner dose 0.0004 µM) | 65.9% | 84.2% | 64% | 79.6% | 138% | 152% | 42.6% | 130%
NC(=O)c1ccc(N(C(N)=O)c2c(F)cccc2F)nc1-c1ccc(F)cc1F + OCc1c[nH]c2ccccc12 [Indole-3-carbinol] (first compound 0.4 µM, partner dose 0.8 µM) | 88.1% | 48.7% | 123% | 85.8% | 112% | 114% | 93% | 132%
CS(=O)(=O)c1ccc(C(=O)Nc2ccc(Cl)c(-c3ccccn3)c2)c(Cl)c1 [vismodegib] + Clc1ccc(Nc2nnc(Cc3ccncc3)c3ccccc23)cc1 [vatalanib] (first compound 1 µM, partner dose 2 µM) | 99.3% | 119% | 223% | 172% | 74% | 133% | 62.7% | 201%
CS(=O)(=O)c1ccc(C(=O)Nc2ccc(Cl)c(-c3ccccn3)c2)c(Cl)c1 [vismodegib] + CNC(=O)c1cc(Oc2ccc(NC(=O)Nc3ccc(Cl)c(C(F)(F)F)c3)cc2)ccn1 [sorafenib] (first compound 1 µM, partner dose 0.4 µM) | 109% | 176% | 260% | 49.9% | 155% | 147% | 31% | 64.8%
C[C@@H](N)c1ccc(C(=O)Nc2ccnc3[nH]ccc23)cc1 + CCCCCCCCc1ccc(CCC(N)(CO)CO)cc1 [fingolimod] (first compound 0.4 µM, partner dose 2 µM) | 253% | 206% | 141% | 116% | 96.5% | 90.9% | 43.4% | 91.2%
C[C@]1(O)C[C@@H](c2nc(-c3ccc4ccc(-c5ccccc5)nc4c3)c3c(N)nccn32)C1 + CCCS(=O)(=O)Nc1ccc(F)c(C(=O)c2c[nH]c3ncc(Cl)cc23)c1F [PLX4720] (first compound 0.4 µM, partner dose 0.08 µM) | 88.9% | 28.1% | 76% | 82.7% | 358% | 231% | 138% | 126%
NC(=O)c1ccc(N(C(N)=O)c2c(F)cccc2F)nc1-c1ccc(F)cc1F + CS(=O)(=O)CCNCc1ccc(-c2ccc3ncnc(Nc4ccc(OCc5cccc(F)c5)c(Cl)c4)c3c2)o1 [lapatinib] (first compound 0.4 µM, partner dose 0.8 µM) | 170% | 195% | 67% | 304% | 92.6% | 94.4% | 185% | 209%
CC1(C)CCC(c2ccc(Cl)cc2)=C(CN2CCN(c3ccc(C(=O)NS(=O)(=O)c4ccc(N[C@H](CCN5CCOCC5)CSc5ccccc5)c(S(=O)(=O)C(F)(F)F)c4)cc3)CC2)C1 + Cc1cc(Nc2cc(N3CCN(C)CC3)nc(/C=C/c3ccccc3)n2)n[nH]1 [ENMD2076] (first compound 0.4 µM, partner dose 0.04 µM) | 196% | 193% | 73.1% | 193% | 161% | 145% | 198% | 133%
NC1(c2ccc(-c3nc4ccn5c(=O)[nH]nc5c4cc3-c3ccccc3)cc2)CCC1 + O=C(O)c1ccc2c(c1)nc(Nc1cccc(Cl)c1)c1ccncc12 [CX4945] (first compound 0.4 µM, partner dose 0.4 µM) | 25.4% | 115% | 36.1% | 149% | 83.1% | 92.4% | 29.7% | 142%

Part of the list above, limited to cleaved PARP positive nuclei fraction (UACC62) and cleaved PARP positive nuclei fraction (MeWo):
SMILES | cleaved PARP positive nuclei fraction (UACC62) | cleaved PARP positive nuclei fraction (MeWo)
CC1(C)CCC(c2ccc(Cl)cc2)=C(CN2CCN(c3ccc(C(=O)NS(=O)(=O)c4ccc(N[C@H](CCN5CCOCC5)CSc5ccccc5)c(S(=O)(=O)C(F)(F)F)c4)cc3)CC2)C1 + CC(C)C[C@H](NC(=O)[C@H](Cc1ccccc1)NC(=O)c1cnccn1)B(O)O [Bortezomib] (first compound 0.4 µM, partner dose 0.001 µM) | 130% | 1400%
C[C@@H](N)c1ccc(C(=O)Nc2ccnc3[nH]ccc23)cc1 + CS(=O)(=O)CCNCc1ccc(-c2ccc3ncnc(Nc4ccc(OCc5cccc(F)c5)c(Cl)c4)c3c2)o1 [lapatinib] (first compound 0.4 µM, partner dose 0.8 µM) | 254% | 330%
